Taken from: PubChem BioAssay AID493246 (Drosophila RNAi Screening Center, 2011)
In all, the deposit lists about 21,000 reagents; this is a random part of those with a known target gene and a result. Over the whole deposit, 429 (2%) got an active call. 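Values are raw and not normalised between plates; calls rest on per-plate z-scores that were not deposited.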 Reagents against one gene are numbered here. The record does not give: the amount of reagent, the time to read-out.

- Assay: 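Genes fly cells need to grow and stay alive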 (primary screen)
- Cells: Drosophila Kc and S2R+ cells
- Knock-down reagent: long dsRNA against Drosophila genes
- Measurement: 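Raw, unnormalised count of remaining cells in each well; per-plate z-scores of cell number underlie the calls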
- Reading the numbers: Kc cell number and S2R+ cell number: higher = more cells remaining
- Call rule: 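Active when the per-plate z-score of cell number is 3 or more in the direction of fewer cells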

With knock-down of CG14377, the record shows Kc cell number, rep 1 = 1.40e6; Kc cell number, rep 2 = 1.40e6; S2R+ cell number, rep 1 = 1.18e6; S2R+ cell number, rep 2 = 1.33e6; inactive.
Amnionless showed Kc cell number, rep 1 = 1.60e6; Kc cell number, rep 2 = 1.62e6; S2R+ cell number, rep 1 = 1.19e6; S2R+ cell number, rep 2 = 1.34e6; inactive.
Knock-down of CtsF #1 came out at: Kc cell number, rep 1 = 1.56e6; Kc cell number, rep 2 = 1.54e6; S2R+ cell number, rep 1 = 1.17e6; S2R+ cell number, rep 2 = 1.37e6; inactive.
CtsF #2 showed Kc cell number, rep 1 = 1.70e6; Kc cell number, rep 2 = 1.75e6; S2R+ cell number, rep 1 = 1.43e6; S2R+ cell number, rep 2 = 1.49e6; inactive.
After knock-down of CtsF #3, the record shows Kc cell number, rep 1 = 1.59e6; Kc cell number, rep 2 = 1.74e6; S2R+ cell number, rep 1 = 1.28e6; S2R+ cell number, rep 2 = 1.46e6; inactive.
After knock-down of ND-24, the record shows Kc cell number, rep 1 = 1.45e6; Kc cell number, rep 2 = 1.46e6; S2R+ cell number, rep 1 = 9.27e5; S2R+ cell number, rep 2 = 1.04e6; inactive.
CG5742 gave Kc cell number, rep 1 = 1.34e6; Kc cell number, rep 2 = 1.37e6; S2R+ cell number, rep 1 = 1.20e6; S2R+ cell number, rep 2 = 1.25e6; inactive.
nAChRalpha4 scored Kc cell number, rep 1 = 1.49e6; Kc cell number, rep 2 = 1.50e6; S2R+ cell number, rep 1 = 1.07e6; S2R+ cell number, rep 2 = 1.29e6; inactive.
Depletion of sktl gave: Kc cell number, rep 1 = 1.34e6; Kc cell number, rep 2 = 1.40e6; S2R+ cell number, rep 1 = 1.13e6; S2R+ cell number, rep 2 = 1.20e6; inactive.
Depletion of Uba4 resulted in: Kc cell number, rep 1 = 1.68e6; Kc cell number, rep 2 = 1.64e6; S2R+ cell number, rep 1 = 1.32e6; S2R+ cell number, rep 2 = 1.49e6; inactive.

2 entries from above, ordered by “S2R+ cell number, rep 1”, high to low.
Amnionless — Kc cell number, rep 1: 1.60e6; Kc cell number, rep 2: 1.62e6; S2R+ cell number, rep 1: 1.19e6; S2R+ cell number, rep 2: 1.34e6; call: inactive
CG14377 — Kc cell number, rep 1: 1.40e6; Kc cell number, rep 2: 1.40e6; S2R+ cell number, rep 1: 1.18e6; S2R+ cell number, rep 2: 1.33e6; call: inactive

Additional records follow:
Against tld the deposit lists Kc cell number, rep 1 = 1.52e6; Kc cell number, rep 2 = 1.77e6; S2R+ cell number, rep 1 = 1.04e6; S2R+ cell number, rep 2 = 1.11e6; inactive.
Against CG18130, the values are Kc cell number, rep 1 = 1.51e6; Kc cell number, rep 2 = 1.45e6; S2R+ cell number, rep 1 = 9.97e5; S2R+ cell number, rep 2 = 1.12e6; inactive.
TfIIB scored Kc cell number, rep 1 = 1.59e6; Kc cell number, rep 2 = 1.73e6; S2R+ cell number, rep 1 = 1.19e6; S2R+ cell number, rep 2 = 1.31e6; inactive.
With knock-down of Gclm, the record shows Kc cell number, rep 1 = 1.62e6; Kc cell number, rep 2 = 1.66e6; S2R+ cell number, rep 1 = 1.40e6; S2R+ cell number, rep 2 = 1.40e6; inactive.
With knock-down of CG8839, the screen gave Kc cell number, rep 1 = 1.31e6; Kc cell number, rep 2 = 1.45e6; S2R+ cell number, rep 1 = 9.60e5; S2R+ cell number, rep 2 = 1.09e6; inactive.
With knock-down of Rpn6, the screen gave Kc cell number, rep 1 = 7.57e5; Kc cell number, rep 2 = 9.19e5; S2R+ cell number, rep 1 = 6.05e5; S2R+ cell number, rep 2 = 6.50e5; inactive.
After knock-down of CG33125, the screen gave Kc cell number, rep 1 = 1.46e6; Kc cell number, rep 2 = 1.47e6; S2R+ cell number, rep 1 = 1.06e6; S2R+ cell number, rep 2 = 1.14e6; inactive.
After knock-down of CG31817 #1 the results were Kc cell number, rep 1 = 1.47e6; Kc cell number, rep 2 = 1.50e6; S2R+ cell number, rep 1 = 1.00e6; S2R+ cell number, rep 2 = 1.23e6; inactive.
After knock-down of CG31817 #2, the screen gave Kc cell number, rep 1 = 1.64e6; Kc cell number, rep 2 = 1.78e6; S2R+ cell number, rep 1 = 1.07e6; S2R+ cell number, rep 2 = 1.22e6; inactive.
Silencing of CG10559 gave: Kc cell number, rep 1 = 1.84e6; Kc cell number, rep 2 = 1.86e6; S2R+ cell number, rep 1 = 1.12e6; S2R+ cell number, rep 2 = 1.13e6; inactive.
Rme-8 showed Kc cell number, rep 1 = 1.39e6; Kc cell number, rep 2 = 1.53e6; S2R+ cell number, rep 1 = 1.02e6; S2R+ cell number, rep 2 = 1.02e6; inactive.
